Source: the supplement of paper PMC10849652
This is one part of the list.

Protein sequences, listed by entry. Tags and fused reporters are not part of them. Lines headed by an entry give the natural chain unless they say otherwise; changes in a name come on top.
UniProt Q9BWD3: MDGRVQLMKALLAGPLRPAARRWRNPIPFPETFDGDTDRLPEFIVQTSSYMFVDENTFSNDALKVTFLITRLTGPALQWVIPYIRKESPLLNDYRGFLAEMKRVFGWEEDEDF
UniProt Q86WX3: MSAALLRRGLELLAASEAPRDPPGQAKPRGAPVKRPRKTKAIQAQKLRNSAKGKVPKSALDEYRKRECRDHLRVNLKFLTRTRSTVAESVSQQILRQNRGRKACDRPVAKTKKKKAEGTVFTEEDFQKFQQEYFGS
UniProt Q9NQC3: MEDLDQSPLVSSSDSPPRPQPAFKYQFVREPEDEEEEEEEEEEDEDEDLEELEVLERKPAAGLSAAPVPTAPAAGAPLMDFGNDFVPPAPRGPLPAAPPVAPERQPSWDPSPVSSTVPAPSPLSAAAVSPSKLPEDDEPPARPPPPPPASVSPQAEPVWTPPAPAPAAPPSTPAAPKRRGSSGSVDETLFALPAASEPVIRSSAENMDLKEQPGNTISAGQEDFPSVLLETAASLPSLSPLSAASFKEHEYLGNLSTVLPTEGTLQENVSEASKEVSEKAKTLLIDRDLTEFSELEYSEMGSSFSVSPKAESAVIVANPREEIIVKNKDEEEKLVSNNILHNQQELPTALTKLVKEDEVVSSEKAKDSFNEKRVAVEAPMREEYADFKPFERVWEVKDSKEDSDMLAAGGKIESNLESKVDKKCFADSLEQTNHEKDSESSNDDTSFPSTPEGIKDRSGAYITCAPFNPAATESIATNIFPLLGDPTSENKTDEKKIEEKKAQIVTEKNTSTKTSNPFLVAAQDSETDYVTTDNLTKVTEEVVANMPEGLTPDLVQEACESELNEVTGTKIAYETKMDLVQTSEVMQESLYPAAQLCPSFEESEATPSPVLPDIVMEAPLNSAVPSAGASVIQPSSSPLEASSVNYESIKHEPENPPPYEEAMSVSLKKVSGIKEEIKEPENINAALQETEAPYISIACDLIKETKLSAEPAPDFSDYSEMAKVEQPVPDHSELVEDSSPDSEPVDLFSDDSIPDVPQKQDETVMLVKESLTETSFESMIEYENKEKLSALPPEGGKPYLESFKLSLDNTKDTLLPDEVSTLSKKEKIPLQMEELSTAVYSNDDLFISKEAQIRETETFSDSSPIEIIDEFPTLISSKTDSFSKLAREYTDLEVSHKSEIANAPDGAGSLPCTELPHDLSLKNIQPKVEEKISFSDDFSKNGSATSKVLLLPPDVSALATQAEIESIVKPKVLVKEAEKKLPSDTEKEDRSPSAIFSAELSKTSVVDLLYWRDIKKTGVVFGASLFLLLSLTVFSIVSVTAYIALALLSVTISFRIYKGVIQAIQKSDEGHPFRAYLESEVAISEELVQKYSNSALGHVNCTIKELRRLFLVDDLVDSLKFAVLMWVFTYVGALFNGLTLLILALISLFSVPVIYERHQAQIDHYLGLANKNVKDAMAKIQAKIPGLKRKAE
UniProt Q96EU6: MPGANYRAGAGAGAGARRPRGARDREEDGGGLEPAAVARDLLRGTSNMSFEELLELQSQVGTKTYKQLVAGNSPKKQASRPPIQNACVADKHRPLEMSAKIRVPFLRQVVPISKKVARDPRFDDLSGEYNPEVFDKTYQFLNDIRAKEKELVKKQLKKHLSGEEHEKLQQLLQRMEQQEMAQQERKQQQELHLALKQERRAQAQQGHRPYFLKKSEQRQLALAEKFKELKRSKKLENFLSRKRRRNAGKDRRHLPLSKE
UniProt P28702: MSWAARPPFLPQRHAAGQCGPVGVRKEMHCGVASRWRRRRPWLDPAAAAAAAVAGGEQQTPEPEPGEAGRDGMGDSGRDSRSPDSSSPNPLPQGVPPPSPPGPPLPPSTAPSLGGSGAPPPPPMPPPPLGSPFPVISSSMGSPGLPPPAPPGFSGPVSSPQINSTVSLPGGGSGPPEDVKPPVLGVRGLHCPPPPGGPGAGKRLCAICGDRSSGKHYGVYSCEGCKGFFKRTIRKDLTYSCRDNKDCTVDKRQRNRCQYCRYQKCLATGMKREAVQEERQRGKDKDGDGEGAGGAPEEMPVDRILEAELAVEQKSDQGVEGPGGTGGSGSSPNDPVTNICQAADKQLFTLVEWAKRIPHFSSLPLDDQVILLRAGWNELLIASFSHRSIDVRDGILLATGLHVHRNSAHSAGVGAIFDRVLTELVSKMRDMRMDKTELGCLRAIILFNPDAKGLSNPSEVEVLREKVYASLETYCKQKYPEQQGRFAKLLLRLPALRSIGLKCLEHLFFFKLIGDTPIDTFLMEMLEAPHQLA
UniProt Q9HCY8: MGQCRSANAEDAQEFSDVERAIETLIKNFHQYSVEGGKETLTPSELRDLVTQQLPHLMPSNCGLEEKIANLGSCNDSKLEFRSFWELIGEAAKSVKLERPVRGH
UniProt A6ZKI3: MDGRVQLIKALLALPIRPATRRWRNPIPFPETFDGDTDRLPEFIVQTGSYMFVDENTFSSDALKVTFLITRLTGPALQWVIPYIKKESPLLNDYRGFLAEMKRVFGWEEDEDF
UniProt Q9UJJ7: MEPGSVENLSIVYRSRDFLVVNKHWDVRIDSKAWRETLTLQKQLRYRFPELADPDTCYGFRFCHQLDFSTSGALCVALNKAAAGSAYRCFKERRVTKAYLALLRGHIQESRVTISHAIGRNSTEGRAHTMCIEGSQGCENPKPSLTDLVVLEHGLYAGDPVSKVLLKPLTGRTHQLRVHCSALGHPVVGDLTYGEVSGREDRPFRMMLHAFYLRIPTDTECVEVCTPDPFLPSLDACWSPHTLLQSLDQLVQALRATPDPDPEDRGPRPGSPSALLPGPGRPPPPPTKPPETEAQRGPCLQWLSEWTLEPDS
UniProt Q9UBS0: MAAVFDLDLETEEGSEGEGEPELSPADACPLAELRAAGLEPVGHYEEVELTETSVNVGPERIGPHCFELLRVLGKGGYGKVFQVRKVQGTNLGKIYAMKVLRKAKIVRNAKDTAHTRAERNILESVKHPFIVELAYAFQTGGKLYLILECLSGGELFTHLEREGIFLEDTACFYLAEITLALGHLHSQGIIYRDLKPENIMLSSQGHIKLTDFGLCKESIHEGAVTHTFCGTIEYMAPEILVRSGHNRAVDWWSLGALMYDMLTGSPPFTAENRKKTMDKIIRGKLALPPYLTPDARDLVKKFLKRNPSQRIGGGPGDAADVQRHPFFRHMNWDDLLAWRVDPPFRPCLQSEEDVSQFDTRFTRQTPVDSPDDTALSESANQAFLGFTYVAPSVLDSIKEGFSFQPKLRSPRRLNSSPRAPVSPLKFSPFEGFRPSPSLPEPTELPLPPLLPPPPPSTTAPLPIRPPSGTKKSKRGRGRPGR
UniProt Q6P087: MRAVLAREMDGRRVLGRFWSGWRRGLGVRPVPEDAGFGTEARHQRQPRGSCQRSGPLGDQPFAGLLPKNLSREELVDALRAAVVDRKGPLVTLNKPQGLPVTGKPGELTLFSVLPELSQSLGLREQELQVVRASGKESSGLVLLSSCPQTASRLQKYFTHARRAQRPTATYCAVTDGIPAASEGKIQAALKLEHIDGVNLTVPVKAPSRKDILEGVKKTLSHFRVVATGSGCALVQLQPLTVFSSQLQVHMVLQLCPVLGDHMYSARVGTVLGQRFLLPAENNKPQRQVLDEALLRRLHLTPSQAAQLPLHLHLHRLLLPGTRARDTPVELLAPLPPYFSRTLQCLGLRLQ
UniProt P57060: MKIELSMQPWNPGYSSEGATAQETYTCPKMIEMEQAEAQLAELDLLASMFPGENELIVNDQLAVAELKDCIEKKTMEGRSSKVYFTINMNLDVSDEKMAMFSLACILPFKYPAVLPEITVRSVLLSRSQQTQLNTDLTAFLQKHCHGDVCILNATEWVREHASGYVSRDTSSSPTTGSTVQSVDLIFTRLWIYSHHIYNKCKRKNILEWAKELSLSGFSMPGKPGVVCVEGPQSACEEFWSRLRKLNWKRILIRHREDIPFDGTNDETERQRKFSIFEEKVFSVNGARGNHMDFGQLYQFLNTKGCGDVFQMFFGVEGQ
UniProt Q8WXA3: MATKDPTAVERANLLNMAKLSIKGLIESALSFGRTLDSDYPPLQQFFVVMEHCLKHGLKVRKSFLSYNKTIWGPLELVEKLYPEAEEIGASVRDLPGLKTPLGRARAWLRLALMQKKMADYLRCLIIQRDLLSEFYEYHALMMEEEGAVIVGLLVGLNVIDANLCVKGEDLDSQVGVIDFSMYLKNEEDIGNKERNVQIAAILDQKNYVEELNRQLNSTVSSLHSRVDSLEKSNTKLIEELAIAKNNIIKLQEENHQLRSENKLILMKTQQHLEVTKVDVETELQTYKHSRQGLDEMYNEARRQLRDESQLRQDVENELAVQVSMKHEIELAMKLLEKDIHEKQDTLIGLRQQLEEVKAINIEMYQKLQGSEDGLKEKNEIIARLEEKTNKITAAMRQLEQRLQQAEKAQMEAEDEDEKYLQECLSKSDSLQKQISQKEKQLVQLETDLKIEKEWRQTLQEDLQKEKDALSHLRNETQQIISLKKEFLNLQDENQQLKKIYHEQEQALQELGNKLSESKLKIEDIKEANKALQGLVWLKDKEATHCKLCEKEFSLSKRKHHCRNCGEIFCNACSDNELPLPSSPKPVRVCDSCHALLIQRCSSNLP
UniProt Q9NYV6: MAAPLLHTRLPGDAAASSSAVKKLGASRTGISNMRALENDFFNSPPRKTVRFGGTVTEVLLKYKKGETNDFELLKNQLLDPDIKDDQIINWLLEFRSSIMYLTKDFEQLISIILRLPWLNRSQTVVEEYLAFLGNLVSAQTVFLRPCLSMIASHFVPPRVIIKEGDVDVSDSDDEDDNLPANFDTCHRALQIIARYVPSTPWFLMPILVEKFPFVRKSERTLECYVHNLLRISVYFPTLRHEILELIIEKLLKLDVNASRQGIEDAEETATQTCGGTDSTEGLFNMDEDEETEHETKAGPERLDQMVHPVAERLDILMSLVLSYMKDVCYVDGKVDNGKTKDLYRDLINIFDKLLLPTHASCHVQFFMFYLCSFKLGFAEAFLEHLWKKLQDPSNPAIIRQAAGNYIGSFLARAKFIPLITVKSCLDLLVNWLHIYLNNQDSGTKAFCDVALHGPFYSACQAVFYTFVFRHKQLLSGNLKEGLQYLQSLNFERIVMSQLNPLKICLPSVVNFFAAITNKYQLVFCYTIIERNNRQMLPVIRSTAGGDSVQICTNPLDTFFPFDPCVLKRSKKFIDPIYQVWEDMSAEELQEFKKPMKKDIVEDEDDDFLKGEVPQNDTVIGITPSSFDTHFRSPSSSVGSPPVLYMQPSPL
UniProt Q9P2E9: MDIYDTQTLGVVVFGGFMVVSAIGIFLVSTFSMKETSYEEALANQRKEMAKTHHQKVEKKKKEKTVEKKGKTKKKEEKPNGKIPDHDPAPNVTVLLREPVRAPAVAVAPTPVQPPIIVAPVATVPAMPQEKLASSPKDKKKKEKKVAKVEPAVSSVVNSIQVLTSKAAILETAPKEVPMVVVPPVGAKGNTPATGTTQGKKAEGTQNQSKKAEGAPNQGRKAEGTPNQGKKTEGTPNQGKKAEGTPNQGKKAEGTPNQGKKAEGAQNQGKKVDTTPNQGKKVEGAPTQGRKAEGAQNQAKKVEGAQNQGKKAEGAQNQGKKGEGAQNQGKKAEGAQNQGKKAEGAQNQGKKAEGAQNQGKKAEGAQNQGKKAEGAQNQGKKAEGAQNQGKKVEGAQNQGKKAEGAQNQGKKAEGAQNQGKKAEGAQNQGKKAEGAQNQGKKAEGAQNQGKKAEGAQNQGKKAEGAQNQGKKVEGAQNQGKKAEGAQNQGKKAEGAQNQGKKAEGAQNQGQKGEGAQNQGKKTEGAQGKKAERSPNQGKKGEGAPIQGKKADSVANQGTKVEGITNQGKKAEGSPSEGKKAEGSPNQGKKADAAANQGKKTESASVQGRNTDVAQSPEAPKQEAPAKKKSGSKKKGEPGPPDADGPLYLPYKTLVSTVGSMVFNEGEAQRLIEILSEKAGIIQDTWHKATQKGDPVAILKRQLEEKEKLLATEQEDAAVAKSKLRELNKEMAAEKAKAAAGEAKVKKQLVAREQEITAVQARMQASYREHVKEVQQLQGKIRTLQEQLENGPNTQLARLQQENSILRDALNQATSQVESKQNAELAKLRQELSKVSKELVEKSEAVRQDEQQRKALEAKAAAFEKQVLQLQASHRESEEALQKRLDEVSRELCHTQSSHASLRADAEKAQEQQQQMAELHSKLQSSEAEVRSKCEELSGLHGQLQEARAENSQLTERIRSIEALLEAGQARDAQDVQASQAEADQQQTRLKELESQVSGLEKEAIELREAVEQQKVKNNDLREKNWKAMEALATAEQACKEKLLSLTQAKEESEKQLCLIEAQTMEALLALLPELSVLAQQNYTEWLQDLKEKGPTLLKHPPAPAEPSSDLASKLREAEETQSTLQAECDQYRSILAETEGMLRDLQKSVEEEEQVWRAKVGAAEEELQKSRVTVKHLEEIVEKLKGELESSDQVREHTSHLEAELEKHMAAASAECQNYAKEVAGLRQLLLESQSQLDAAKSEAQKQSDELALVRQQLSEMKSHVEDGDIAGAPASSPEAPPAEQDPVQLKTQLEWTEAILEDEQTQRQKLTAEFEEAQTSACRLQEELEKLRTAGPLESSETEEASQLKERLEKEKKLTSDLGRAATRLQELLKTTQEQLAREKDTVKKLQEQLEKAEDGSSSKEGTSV

Compound: COC(=O)N[C@@H](C)CNc1nccc(-c2cn(C(C)C)nc2-c2cc(Cl)cc(NS(C)(=O)=O)c2F)n1 [encorafenib]
Test: log2 fold change, soluble protein after heating vs DMSO (PISA); higher = thermal stabilisation; K562 lysate, 10 uM; active = over 0.2 and 3.5 SD of the protein, either way, in both replicates (recomputed)
How it was run: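 K562 pellets were dounce-homogenised in PBS pH 7.4 containing 1 mM MgCl2, and the crude extract, at 1 mg/mL protein, was exposed to 10 μM compound for 30 min. Aliquots were heated for 3 min across 48°C-58°C, pooled, brought to 0.5% NP-40 at 4°C and spun at 21,000xg for 90 min, with the supernatant taken as soluble protein. TMTpro 16plex LC-MS/MS with equalised channel sums quantified that protein. Values are log-two fold changes in thermal stability relative to solvent controls, taken from duplicates.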

log2 fold change, inactive:
RTL8A (UniProt Q9BWD3) -0.054
RPS19BP1 (UniProt Q86WX3) 0.281
RPS7, A0A2R8Y623 0.024
RTN4 isoform 3 (UniProt Q9NQC3) -0.374
RRP36 (UniProt Q96EU6) 0.148
RPS19 (UniProt M0R2L9) -0.224
RPS3 (UniProt E9PJN9) -0.036
RXRB isoform 3 (UniProt P28702) 0.066
S100A14 (UniProt Q9HCY8) 0
RTL8C (UniProt A6ZKI3) -0.064
RPUSD1 (UniProt Q9UJJ7) -0.113
RPS6KB2 (UniProt Q9UBS0) 0.132
RPS6KA3 (UniProt P51812) -0.107
RPUSD3 (UniProt Q6P087) 0.022
RWDD2B (UniProt P57060) 0.123
RPP30 (UniProt Q5VU11) -0.004
RUFY2 isoform 1 (UniProt Q8WXA3) 0.13
RRN3 (UniProt Q9NYV6) 0.006
RRBP1 isoform 3 (UniProt Q9P2E9) -0.065

Two records picked at random from the list so far:
log2 fold change, inactive:
RRBP1 isoform 3 (UniProt Q9P2E9) -0.065
RPS19 (UniProt M0R2L9) -0.224
